The list shows a part of the results.
Tests used:
Experiment in all cases: log2 fold change, soluble protein after heating vs DMSO (PISA); higher = thermal stabilisation; K562 cells, 10 uM, 30 min; active = over 0.2 and 3.5 SD of the protein, either way, in both replicates (recomputed)
crizotinib = compound: C[C@@H](Oc1cc(-c2cnn(C3CCNCC3)c2)cnc1N)c1c(Cl)ccc(F)c1Cl [crizotinib]
Outline: (§1)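 K562 cells at 2×10^6 cells/mL were given 10 μM compound for 30 min. Aliquots then went through 3 min of heating across 48°C-58°C, were pooled, and were extracted in PBS with 0.5% NP-40 at 4°C, and the supernatant after 21,000xg for 90 min was quantified by TMTpro 16plex LC-MS/MS with channel sums equalised. Thermal stability relative to control samples, from duplicates, is given as log2 fold change.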

By UniProt entry, the sequences of proteins in these tests, tags left out. Where a name states a change or a piece, a line headed by the entry shows the natural chain unless it says otherwise.
UniProt Q13829: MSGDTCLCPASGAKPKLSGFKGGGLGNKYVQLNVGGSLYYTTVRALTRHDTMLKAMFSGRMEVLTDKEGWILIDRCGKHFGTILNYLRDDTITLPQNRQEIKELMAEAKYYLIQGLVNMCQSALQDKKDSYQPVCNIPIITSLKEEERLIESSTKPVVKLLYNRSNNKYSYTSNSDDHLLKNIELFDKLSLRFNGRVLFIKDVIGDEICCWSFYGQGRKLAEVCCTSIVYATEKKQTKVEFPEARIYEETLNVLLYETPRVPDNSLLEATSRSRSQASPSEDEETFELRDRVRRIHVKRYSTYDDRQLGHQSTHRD
UniProt Q9BX74: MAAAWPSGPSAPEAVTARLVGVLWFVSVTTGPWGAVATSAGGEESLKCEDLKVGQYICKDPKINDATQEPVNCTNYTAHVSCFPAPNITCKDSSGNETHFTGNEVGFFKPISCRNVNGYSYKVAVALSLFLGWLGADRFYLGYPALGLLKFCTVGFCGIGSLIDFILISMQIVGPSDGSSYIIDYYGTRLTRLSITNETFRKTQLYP
UniProt Q12767: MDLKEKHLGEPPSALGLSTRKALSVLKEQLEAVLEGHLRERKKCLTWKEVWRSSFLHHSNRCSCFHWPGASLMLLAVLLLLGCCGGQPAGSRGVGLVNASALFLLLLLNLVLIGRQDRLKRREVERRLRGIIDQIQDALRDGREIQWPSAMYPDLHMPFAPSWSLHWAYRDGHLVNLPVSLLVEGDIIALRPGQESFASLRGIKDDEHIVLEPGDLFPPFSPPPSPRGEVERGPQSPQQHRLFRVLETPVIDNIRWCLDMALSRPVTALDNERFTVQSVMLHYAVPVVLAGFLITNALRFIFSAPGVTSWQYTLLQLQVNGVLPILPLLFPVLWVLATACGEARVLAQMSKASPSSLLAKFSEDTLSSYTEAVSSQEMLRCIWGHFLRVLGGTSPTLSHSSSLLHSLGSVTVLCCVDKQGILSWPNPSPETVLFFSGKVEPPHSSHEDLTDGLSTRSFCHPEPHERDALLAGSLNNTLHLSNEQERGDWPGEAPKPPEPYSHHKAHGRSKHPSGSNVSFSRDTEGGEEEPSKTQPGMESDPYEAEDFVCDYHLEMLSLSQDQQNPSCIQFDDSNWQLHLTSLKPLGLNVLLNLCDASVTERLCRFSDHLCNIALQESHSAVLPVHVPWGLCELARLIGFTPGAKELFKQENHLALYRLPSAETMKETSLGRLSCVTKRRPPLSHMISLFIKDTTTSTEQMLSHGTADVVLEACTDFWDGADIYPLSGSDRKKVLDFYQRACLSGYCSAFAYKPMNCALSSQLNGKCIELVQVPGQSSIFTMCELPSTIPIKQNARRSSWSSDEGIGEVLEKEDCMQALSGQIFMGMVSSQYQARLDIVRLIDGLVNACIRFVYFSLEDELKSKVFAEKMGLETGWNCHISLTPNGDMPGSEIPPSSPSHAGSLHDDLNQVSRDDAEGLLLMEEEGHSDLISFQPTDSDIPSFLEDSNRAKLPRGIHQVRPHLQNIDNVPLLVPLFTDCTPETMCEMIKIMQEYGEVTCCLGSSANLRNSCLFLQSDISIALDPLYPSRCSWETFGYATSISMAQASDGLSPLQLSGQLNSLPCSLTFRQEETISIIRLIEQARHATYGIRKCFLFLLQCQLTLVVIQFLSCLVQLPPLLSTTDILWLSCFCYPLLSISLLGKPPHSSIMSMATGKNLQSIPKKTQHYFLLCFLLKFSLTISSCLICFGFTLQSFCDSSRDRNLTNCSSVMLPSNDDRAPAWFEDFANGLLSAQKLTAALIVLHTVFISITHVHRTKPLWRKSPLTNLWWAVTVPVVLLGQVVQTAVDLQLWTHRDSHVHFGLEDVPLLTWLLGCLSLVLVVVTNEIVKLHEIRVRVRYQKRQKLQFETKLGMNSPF
UniProt Q9H6X4: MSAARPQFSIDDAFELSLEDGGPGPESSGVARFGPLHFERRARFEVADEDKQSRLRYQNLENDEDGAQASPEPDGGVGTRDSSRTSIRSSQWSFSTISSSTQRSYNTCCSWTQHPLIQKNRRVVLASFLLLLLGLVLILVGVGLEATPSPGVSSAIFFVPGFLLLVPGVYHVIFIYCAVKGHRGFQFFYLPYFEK
UniProt Q9BSA9: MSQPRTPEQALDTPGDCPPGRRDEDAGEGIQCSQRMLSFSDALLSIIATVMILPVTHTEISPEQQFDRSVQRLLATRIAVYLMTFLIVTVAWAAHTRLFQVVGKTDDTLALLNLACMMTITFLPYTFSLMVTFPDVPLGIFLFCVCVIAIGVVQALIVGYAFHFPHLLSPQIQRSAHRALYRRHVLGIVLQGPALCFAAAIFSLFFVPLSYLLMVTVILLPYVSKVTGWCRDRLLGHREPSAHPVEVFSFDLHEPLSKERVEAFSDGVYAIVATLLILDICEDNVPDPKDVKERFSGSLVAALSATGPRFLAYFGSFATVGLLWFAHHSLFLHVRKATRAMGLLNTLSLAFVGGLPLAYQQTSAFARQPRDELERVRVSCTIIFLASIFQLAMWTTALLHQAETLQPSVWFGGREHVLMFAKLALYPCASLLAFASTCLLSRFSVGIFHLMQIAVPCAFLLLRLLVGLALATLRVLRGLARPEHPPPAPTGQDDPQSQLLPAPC
UniProt Q08117: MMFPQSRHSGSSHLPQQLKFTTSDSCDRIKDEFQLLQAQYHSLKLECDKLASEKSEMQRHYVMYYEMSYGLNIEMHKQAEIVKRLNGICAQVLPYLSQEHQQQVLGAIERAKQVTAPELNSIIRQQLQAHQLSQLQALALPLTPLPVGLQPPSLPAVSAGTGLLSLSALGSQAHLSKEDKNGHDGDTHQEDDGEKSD
UniProt Q9H1K6: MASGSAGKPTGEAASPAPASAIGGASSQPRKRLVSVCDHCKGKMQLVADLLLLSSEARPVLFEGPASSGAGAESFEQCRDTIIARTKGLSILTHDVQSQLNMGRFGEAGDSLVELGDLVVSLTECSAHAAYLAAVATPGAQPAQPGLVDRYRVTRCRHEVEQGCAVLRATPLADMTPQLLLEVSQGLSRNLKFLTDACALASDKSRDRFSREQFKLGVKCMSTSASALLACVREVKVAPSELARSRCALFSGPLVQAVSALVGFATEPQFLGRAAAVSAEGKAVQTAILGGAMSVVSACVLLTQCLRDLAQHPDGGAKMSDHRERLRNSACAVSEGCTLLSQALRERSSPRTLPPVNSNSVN
UniProt Q96IK0: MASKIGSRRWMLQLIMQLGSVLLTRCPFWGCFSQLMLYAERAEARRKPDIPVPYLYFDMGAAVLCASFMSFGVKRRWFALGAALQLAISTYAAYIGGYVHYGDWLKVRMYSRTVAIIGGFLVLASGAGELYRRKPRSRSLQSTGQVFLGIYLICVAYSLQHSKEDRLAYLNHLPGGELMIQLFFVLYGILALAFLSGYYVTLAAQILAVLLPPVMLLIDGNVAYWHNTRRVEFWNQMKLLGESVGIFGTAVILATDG
UniProt P21580: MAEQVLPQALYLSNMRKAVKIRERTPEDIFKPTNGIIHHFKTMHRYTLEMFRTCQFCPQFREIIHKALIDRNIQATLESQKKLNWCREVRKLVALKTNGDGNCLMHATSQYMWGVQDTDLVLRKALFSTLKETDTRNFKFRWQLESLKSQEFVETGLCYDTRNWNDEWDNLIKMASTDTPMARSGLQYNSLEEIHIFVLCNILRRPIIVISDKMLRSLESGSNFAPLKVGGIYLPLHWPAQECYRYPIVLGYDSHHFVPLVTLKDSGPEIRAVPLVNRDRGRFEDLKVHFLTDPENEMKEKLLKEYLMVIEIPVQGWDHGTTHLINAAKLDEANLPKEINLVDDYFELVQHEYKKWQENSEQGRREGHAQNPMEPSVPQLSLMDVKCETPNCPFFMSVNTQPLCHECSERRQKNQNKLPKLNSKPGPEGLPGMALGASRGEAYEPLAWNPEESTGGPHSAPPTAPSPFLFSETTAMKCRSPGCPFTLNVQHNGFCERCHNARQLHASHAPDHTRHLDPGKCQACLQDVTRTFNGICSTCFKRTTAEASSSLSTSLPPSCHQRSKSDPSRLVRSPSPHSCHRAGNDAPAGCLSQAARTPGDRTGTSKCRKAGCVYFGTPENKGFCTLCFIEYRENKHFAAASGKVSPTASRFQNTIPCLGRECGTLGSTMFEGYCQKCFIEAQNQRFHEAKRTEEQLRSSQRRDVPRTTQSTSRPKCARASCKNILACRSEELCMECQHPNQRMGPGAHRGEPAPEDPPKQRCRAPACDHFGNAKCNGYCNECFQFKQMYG
UniProt Q9BXS4: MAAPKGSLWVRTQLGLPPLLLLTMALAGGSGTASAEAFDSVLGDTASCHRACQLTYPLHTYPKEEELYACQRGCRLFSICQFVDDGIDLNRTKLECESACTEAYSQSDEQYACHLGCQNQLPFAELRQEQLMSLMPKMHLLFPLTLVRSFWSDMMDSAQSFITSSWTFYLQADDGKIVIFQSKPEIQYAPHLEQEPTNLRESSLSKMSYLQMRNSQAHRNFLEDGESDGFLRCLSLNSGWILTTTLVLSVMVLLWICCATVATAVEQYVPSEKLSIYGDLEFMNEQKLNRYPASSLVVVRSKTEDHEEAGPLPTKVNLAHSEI
UniProt Q9Y519: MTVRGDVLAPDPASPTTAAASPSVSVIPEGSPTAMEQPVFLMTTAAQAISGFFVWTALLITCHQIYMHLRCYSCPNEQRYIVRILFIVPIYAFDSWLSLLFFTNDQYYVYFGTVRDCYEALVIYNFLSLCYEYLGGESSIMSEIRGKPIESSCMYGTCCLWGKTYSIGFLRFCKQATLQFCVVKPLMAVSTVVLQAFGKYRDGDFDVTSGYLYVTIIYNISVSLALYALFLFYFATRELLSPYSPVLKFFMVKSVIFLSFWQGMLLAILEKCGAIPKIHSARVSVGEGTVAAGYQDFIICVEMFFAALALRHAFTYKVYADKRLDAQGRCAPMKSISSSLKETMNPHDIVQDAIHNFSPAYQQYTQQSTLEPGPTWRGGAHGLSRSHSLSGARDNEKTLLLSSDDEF
UniProt P62328: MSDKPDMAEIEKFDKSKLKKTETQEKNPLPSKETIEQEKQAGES
UniProt Q5T292: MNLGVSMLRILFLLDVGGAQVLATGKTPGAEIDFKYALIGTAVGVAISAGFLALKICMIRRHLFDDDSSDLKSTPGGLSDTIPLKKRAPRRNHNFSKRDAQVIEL
UniProt Q5T4D3: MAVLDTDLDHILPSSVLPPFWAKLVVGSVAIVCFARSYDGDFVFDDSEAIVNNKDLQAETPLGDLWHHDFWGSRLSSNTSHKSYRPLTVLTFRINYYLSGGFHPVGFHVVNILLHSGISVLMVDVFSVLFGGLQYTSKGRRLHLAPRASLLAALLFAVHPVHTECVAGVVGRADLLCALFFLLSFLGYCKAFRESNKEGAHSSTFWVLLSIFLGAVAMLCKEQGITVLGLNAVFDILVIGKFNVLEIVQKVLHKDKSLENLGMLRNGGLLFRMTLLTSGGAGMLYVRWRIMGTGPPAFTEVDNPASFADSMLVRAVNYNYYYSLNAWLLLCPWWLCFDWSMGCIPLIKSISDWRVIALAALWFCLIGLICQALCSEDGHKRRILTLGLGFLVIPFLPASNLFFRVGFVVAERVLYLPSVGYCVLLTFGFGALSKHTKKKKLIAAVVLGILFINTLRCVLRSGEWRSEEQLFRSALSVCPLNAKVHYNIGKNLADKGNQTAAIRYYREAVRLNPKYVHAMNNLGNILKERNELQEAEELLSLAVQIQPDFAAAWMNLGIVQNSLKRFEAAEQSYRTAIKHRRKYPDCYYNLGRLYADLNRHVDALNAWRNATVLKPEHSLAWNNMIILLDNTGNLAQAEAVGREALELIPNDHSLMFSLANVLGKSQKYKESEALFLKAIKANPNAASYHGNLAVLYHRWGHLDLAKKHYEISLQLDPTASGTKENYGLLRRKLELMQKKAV
UniProt O75069: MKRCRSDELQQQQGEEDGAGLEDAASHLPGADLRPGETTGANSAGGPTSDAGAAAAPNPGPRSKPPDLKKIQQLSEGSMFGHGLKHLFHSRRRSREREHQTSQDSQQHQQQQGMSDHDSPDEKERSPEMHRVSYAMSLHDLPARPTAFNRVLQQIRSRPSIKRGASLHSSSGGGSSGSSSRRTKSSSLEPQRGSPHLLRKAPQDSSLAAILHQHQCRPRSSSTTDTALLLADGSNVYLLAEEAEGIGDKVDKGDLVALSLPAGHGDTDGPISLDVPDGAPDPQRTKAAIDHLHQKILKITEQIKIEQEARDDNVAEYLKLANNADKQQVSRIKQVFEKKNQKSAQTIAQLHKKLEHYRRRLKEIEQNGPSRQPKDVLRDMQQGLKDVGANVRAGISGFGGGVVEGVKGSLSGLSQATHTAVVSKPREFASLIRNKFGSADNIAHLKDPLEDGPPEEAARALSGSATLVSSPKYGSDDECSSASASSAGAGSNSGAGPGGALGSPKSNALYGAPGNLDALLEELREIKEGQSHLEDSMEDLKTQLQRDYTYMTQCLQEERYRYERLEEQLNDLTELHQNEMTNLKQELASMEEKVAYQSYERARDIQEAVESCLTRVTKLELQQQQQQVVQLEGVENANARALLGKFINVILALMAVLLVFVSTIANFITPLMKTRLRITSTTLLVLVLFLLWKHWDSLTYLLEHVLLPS

[1] = compound: C[C@@H]1COCCN1C2=NC(=NC(=C2)C3(CC3)S(=O)(=O)C)C4=C5C=CNC5=CC=C4
Outline: as §1

[2] = compound: C[C@H](C1=CC=C(C=C1)C(=O)NC2=C3C=CNC3=NC=C2)N
Outline: as §1

duvelisib = compound: C[C@H](Nc1ncnc2nc[nH]c12)c1cc2cccc(Cl)c2c(=O)n1-c1ccccc1 [duvelisib]
Outline: as §1

tozasertib = compound: Cc1cc(Nc2cc(N3CCN(C)CC3)nc(Sc3ccc(NC(=O)C4CC4)cc3)n2)n[nH]1 [tozasertib]
Outline: as §1

[3] = compound: Cc1cc(SCc2sc(-c3ccc(C(F)(F)F)cc3)nc2C)ccc1OCC(=O)O
Outline: as §1

doramapimod = compound: Cc1ccc(-n2nc(C(C)(C)C)cc2NC(=O)Nc2ccc(OCCN3CCOCC3)c3ccccc23)cc1 [doramapimod]
Outline: as §1

ispinesib = compound: Cc1ccc(C(=O)N(CCCN)[C@@H](c2nc3cc(Cl)ccc3c(=O)n2Cc2ccccc2)C(C)C)cc1 [ispinesib]
Outline: as §1

bafetinib = compound: Cc1ccc(NC(=O)c2ccc(CN3CC[C@H](N(C)C)C3)c(C(F)(F)F)c2)cc1Nc1nccc(-c2cncnc2)n1 [bafetinib]
Outline: as §1

nilotinib = compound: Cc1cn(-c2cc(NC(=O)c3ccc(C)c(Nc4nccc(-c5cccnc5)n4)c3)cc(C(F)(F)F)c2)cn1 [nilotinib]
Outline: as §1

[4] = compound: Cc1nc(Nc2n[nH]c3c2CN(C(=O)N[C@H](CN(C)C)c2ccccc2)C3(C)C)c2sccc2n1
Outline: as §1

dasatinib = compound: Cc1nc(Nc2ncc(C(=O)Nc3c(C)cccc3Cl)s2)cc(N2CCN(CCO)CC2)n1 [dasatinib]
Outline: as §1

[5] = compound: Cc1ncc(-c2ccnc(Nc3ccc(S(C)(=O)=O)cc3)n2)n1C(C)C
Outline: as §1

[6] = compound: Cn1cc(-c2ccc3c(c2)CCN3C(=O)Cc2cccc(C(F)(F)F)c2)c2c(N)ncnc21
Outline: as §1

[7] = compound: Cn1cc(-c2ccc3nnc(C(F)(F)c4ccc5ncccc5c4)n3n2)cn1
Outline: as §1

tipifarnib = compound: Cn1cncc1[C@@](N)(c1ccc(Cl)cc1)c1ccc2c(c1)c(-c1cccc(Cl)c1)cc(=O)n2C [tipifarnib]
Outline: as §1

mubritinib = compound: FC(F)(F)c1ccc(/C=C/c2nc(COc3ccc(CCCCn4ccnn4)cc3)co2)cc1 [mubritinib]
Outline: as §1

gandotinib = compound: Cc1cc(Nc2cc(CN3CCOCC3)c3nc(C)c(Cc4ccc(Cl)cc4F)n3n2)n[nH]1 [gandotinib]
Outline: as §1

[8] = compound: Cc1cccc(CC(=O)N2CCc3c2ccc(-c2cn(C)c4ncnc(N)c24)c3F)n1
Outline: as §1

[9] = compound: CS(=O)(=O)c1ccc(-c2cnc(N)c(C(=O)Nc3ccccc3)n2)cc1
Outline: as §1

Measured: log2 fold change

TNFAIP1 (UniProt Q13829)
inactive: crizotinib 0.053 | [1] 0.174 | [2] -0.047 | duvelisib -0.149 | tozasertib -0.023 | [3] 0.196 | doramapimod -0.036 | ispinesib 0.244 | bafetinib -0.003 | nilotinib -0.009 | [4] -0.019 | dasatinib -0.153 | [5] -0.015 | [6] 0.041 | [7] 0.003 | tipifarnib 0.154 | mubritinib 0.11

TMEM267 (UniProt Q0VDI3)
inactive: crizotinib 0.116 | [2] -0.131 | gandotinib 0.17 | tozasertib -0.086 | doramapimod 0.053 | ispinesib -0.173 | bafetinib 0.033 | [8] -0.045 | [6] 0.265 | [7] 0.113 | tipifarnib 0.186

TMEM260 (UniProt Q9NX78)
inactive: crizotinib -0.001 | duvelisib -0.055 | tozasertib 0.05 | [3] -0.1 | doramapimod -0.007 | dasatinib -0.182 | mubritinib 0.144

TM2D1 (UniProt Q9BX74)
inactive: [9] 0.231 | duvelisib 0.218 | [3] 0.082 | dasatinib -0.044

TNFAIP2 (UniProt Q03169)
inactive: [9] 0.125 | duvelisib 0.127 | tozasertib -0.069 | [3] -0.069 | bafetinib -0.139 | nilotinib -0.172 | [4] 0.143 | dasatinib 0.014 | [5] -0.004

TMEM104 (UniProt Q8NE00)
inactive: crizotinib -0.145 | [1] 0.012 | [2] 0.009 | gandotinib -0.087 | [3] -0.049 | doramapimod 0.112 | ispinesib -0.34 | [8] 0.172 | nilotinib 0.019 | [4] -0.003 | dasatinib 0.009 | [5] -0.013 | [6] 0.066 | [7] 0.095 | tipifarnib 0.035 | mubritinib -0.089

TMEM129
inactive: duvelisib 0.183 | tozasertib -0.066 | [3] -0.022 | nilotinib -0.239 | [4] -0.096 | dasatinib 0.13 | [5] 0.08 | tipifarnib -0.038

TMCO6 isoform 2 (UniProt Q96DC7)
inactive: duvelisib 0.234 | gandotinib -0.008 | [3] 0.105 | [8] 0.004 | dasatinib -0.34

TMC6 (UniProt Q7Z403)
inactive: crizotinib -0.217 | [2] 0.036 | duvelisib -0.031 | gandotinib -0.012 | tozasertib -0.026 | [3] 0.016 | doramapimod 0.104 | ispinesib -0.104 | [8] 0.07 | nilotinib -0.187 | [4] 0.047 | dasatinib -0.003 | [5] 0.207 | [6] -0.172 | [7] -0.196 | tipifarnib 0.197 | mubritinib 0.049

TMEM94 isoform 2 (UniProt Q12767)
inactive: duvelisib 0.221 | [3] -0.055 | dasatinib -0.131

TMEM50A (UniProt O95807)
inactive: crizotinib -0.192 | [1] -0.111 | [2] -0.26 | tozasertib 0.002 | doramapimod -0.055 | bafetinib -0.129 | nilotinib -0.167 | [4] -0.056 | [5] 0.03 | [6] 0.021 | tipifarnib 0.14

TMEM134 (UniProt Q9H6X4)
inactive: crizotinib 0.034 | [1] -0.159 | gandotinib 0.011 | doramapimod -0.046 | ispinesib -0.099 | bafetinib -0.113 | [8] 0.011 | [7] 0.104 | mubritinib 0.027

TMEM106C (UniProt Q9BVX2)
inactive: [9] 0.06 | duvelisib 0.095 | [3] 0.025 | bafetinib 0 | nilotinib -0.278 | [4] -0.094 | dasatinib -0.206 | [5] -0.197 | tipifarnib 0.128

TMEM175 (UniProt Q9BSA9)
inactive: duvelisib 0.128 | tozasertib 0.028 | [3] 0.139 | dasatinib -0.139 | tipifarnib 0.158

TLE5 isoform 2 (UniProt Q08117)
inactive: [2] -0.062 | duvelisib 0.005 | gandotinib 0.034 | [3] 0.073 | ispinesib -0.023 | [8] -0.03 | nilotinib 0.045 | [4] 0.001 | dasatinib -0.063 | [5] 0.002 | [6] 0.041 | [7] 0.1 | tipifarnib -0.022 | mubritinib -0.014

TMEM98 (UniProt Q9Y2Y6)
inactive: ispinesib -0.171 | bafetinib 0.004 | nilotinib 0.126 | [4] -0.034 | [5] 0.122 | [7] -0.003 | tipifarnib 0.038 | mubritinib -0.195

TLNRD1 (UniProt Q9H1K6)
inactive: [2] -0.092 | tozasertib -0.037 | [6] -0.099

TMCC3 (UniProt Q9ULS5)
inactive: [9] 0.018 | ispinesib -0.023 | bafetinib 0.031 | nilotinib -0.232 | [4] 0.005 | [5] -0.279 | [7] 0.046 | mubritinib 0.113

TMPO (UniProt G5E972)
inactive: gandotinib -0.017 | [8] -0.035 | mubritinib 0.005

Reprinted at random: 2 records from the list
TMCC3 (UniProt Q9ULS5)
inactive: [9] 0.018 | ispinesib -0.023 | bafetinib 0.031 | nilotinib -0.232 | [4] 0.005 | [5] -0.279 | [7] 0.046 | mubritinib 0.113

TMEM106C (UniProt Q9BVX2)
inactive: [9] 0.06 | duvelisib 0.095 | [3] 0.025 | bafetinib 0 | nilotinib -0.278 | [4] -0.094 | dasatinib -0.206 | [5] -0.197 | tipifarnib 0.128

The listing continues.

TMEM101 (UniProt Q96IK0)
inactive: crizotinib -0.052 | [2] -0.019 | duvelisib 0.089 | gandotinib -0.229 | tozasertib 0.006 | [3] -0.057 | doramapimod -0.013 | ispinesib -0.165 | bafetinib 0.016 | [8] 0.027 | nilotinib -0.118 | [4] 0.061 | dasatinib -0.015 | [5] -0.063 | [6] -0.087 | [7] -0.025 | tipifarnib -0.076 | mubritinib 0.036

TNFAIP3 (UniProt P21580)
inactive: crizotinib 0 | [1] -0.019 | [2] 0.056 | gandotinib -0.046 | doramapimod 0.003 | ispinesib 0.027 | bafetinib -0.028 | [8] -0.044 | nilotinib 0.049 | [4] -0.105 | [5] -0.07 | [6] -0.011 | [7] -0.029 | tipifarnib -0.005 | mubritinib -0.099

TMEM59 (UniProt Q9BXS4)
inactive: crizotinib 0.04 | [2] 0.144 | duvelisib 0.024 | gandotinib -0.098 | tozasertib 0.074 | [3] 0.048 | doramapimod 0.129 | ispinesib 0.411 | [8] -0.087 | nilotinib 0.019 | [4] -0.117 | dasatinib 0.043 | [5] 0.059 | [6] -0.04 | [7] -0.486 | tipifarnib 0.08 | mubritinib 0.033

TMEM8A (UniProt Q9HCN3)
inactive: [9] 0.425 | [2] 0.049 | gandotinib 0.014 | [3] -0.095 | ispinesib -0.065 | bafetinib -0.054 | [8] 0.096 | nilotinib -0.033 | [4] 0.071 | dasatinib -0.409 | [5] 0.019 | [6] -0.046 | [7] 0 | tipifarnib 0.047 | mubritinib -0.001

TMEM181 (UniProt Q9P2C4)
inactive: crizotinib 0.194 | [2] -0.164 | duvelisib -0.147 | gandotinib 0.202 | tozasertib 0.039 | [3] -0.026 | doramapimod 0.029 | ispinesib -0.01 | bafetinib 0.048 | [8] -0.012 | dasatinib 0.169 | [6] -0.022 | [7] -0.049 | tipifarnib 0.066 | mubritinib 0.094

TMEM184B (UniProt Q9Y519)
inactive: [9] -0.037 | tozasertib -0.034 | bafetinib -0.105 | nilotinib 0.022 | [4] -0.064 | [5] -0.018 | tipifarnib 0.044 | mubritinib -0.008

TMSB4X (UniProt P62328)
inactive: crizotinib 0.236 | [1] -0.426 | [2] 0.146 | duvelisib -0.36 | [3] -0.345 | doramapimod -0.778 | ispinesib -0.113 | bafetinib -0.82 | nilotinib -0.05 | [4] 0.121 | dasatinib 0.225 | [5] -0.496 | [6] -0.283 | [7] -0.117 | tipifarnib 0.527 | mubritinib 0.311

TMEM131 (UniProt Q92545)
inactive: [9] 0.239 | gandotinib 0 | tozasertib -0.152 | [8] -0.09

TMEM127 (UniProt O75204)
inactive: [2] 0.058 | tozasertib -0.055 | nilotinib 0.015 | [4] -0.072 | [5] 0.1 | [6] -0.017

TMED8 (UniProt Q6PL24)
inactive: crizotinib -0.106 | [2] 0.061 | duvelisib -0.006 | gandotinib -0.007 | tozasertib 0.041 | [3] 0.225 | doramapimod 0.194 | ispinesib 0.082 | bafetinib 0.115 | [8] 0.046 | nilotinib -0.197 | [4] 0.01 | dasatinib -0.067 | [5] 0.046 | [6] 0.001 | [7] -0.028 | tipifarnib -0.027 | mubritinib 0.02

TMEM273 isoform 2 (UniProt Q5T292)
inactive: tozasertib -0.218 | nilotinib -0.177 | [4] -0.053 | [5] 0.032

TM7SF2 (UniProt O76062)
inactive: [9] -0.044 | [2] 0.028 | [3] 0.028 | ispinesib -0.451 | nilotinib -0.113 | [4] -0.059 | dasatinib -0.25 | [5] 0.018 | [6] 0.035 | [7] 0.046 | tipifarnib -0.067

TMTC4 isoform 3 (UniProt Q5T4D3)
inactive: crizotinib -0.002 | duvelisib -0.198 | [3] -0.084 | doramapimod -0.014 | bafetinib 0.151 | dasatinib 0.025

TMEM120B (UniProt A0PK00)
inactive: crizotinib 0.015 | [2] -0.201 | duvelisib -0.103 | gandotinib -0.013 | tozasertib -0.013 | [3] -0.093 | doramapimod -0.055 | ispinesib 0.156 | [8] 0.068 | nilotinib 0.015 | [4] 0.058 | dasatinib -0.166 | [5] 0.076 | [6] 0.14 | [7] 0.049 | mubritinib -0.086

TMCC2 (UniProt O75069)
inactive: [2] 0.283 | duvelisib 0.109 | [3] -0.07 | nilotinib 0.01 | [4] -0.149 | dasatinib 0 | [5] -0.085 | [6] 0.245

Reference: the supplement of paper PMC10849652
